# Laboratory results from article PMC3996652.
# These are yes or no findings as the source states them, for the method shown. Binding seen in cells or lysates may run through a third protein. A yes stands for co-enrichment or nearness to the bait. Other partners may have been found.
# T1: PHLPP2 (PH-domain leucine-rich-repeat protein phosphatase 2), endogenous (human (endogenous in D54)) (UniProt Q6ZVD8)
# T1 sequence: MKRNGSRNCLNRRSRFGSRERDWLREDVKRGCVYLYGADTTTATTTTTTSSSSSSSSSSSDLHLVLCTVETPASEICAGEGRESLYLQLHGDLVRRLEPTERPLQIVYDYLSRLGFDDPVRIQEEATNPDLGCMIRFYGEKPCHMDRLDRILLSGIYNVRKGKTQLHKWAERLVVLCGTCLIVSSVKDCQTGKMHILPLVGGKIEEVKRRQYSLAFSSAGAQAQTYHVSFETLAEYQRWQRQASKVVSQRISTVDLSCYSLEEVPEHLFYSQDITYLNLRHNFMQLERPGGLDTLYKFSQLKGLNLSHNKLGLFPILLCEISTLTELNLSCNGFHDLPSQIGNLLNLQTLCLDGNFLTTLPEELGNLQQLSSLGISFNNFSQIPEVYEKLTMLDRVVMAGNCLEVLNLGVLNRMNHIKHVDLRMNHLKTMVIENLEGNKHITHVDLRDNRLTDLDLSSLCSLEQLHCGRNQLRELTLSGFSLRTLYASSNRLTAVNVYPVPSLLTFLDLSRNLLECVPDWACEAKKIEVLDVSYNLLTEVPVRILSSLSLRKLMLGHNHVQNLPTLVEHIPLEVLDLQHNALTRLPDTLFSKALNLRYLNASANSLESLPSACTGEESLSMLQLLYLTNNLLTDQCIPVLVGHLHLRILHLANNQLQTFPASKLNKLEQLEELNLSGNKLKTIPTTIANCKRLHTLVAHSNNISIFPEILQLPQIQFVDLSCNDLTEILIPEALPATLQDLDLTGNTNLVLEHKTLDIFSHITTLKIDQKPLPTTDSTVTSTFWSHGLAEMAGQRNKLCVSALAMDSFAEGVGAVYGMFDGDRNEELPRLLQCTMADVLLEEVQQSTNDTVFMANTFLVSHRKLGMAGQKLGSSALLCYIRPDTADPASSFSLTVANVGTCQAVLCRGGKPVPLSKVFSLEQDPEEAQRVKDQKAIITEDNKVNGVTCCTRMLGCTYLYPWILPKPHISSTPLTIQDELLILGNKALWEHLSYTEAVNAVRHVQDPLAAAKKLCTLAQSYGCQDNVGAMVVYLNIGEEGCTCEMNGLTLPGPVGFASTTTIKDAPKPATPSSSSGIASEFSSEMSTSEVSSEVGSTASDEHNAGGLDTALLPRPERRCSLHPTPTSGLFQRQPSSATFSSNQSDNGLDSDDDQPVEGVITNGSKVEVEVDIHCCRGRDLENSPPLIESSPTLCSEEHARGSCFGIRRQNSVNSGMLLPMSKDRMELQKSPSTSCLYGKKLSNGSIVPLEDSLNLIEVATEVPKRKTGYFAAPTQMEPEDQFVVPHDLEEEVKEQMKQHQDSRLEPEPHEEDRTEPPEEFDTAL
# Molecular target: T1, PHLPP2 (PH-domain leucine-rich-repeat protein phosphatase 2), endogenous (human (endogenous in D54))
# Experiment: affinity purification with mass spectrometry; immunoprecipitation of endogenous PHLPP2 from D54 cells, silver stain, LC-MS/MS
binder,measurement,value
"IKKβ, endogenous (protein, UniProt O14920 1-756) MSWSPSLTTQTCGAWEMKERLGTGGFGNVIRWHNQETGEQIAIKQCRQELSPRNRERWCLEIQIMRRLTHPNVVAARDVPEGMQNLAPNDLPLLAMEYCQGGDLRKYLNQFENCCGLREGAILTLLSDIASALRYLHENRIIHRDLKPENIVLQQGEQRLIHKIIDLGYAKELDQGSLCTSFVGTLQYLAPELLEQQKYTVTVDYWSFGTLAFECITGFRPFLPNWQPVQWHSKVRQKSEVDIVVSEDLNGTVKFSSSLPYPNNLNSVLAERLEKWLQLMLMWHPRQRGTDPTYGPNGCFKALDDILNLKLVHILNMVTGTIHTYPVTEDESLQSLKARIQQDTGIPEEDQELLQEAGLALIPDKPATQCISDGKLNEGHTLDMDLVFLFDNSKITYETQISPRPQPESVSCILQEPKRNLAFFQLRKVWGQVWHSIQTLKEDCNRLQQGQRAAMMNLLRNNSCLSKMKNSMASMSQQLKAKLDFFKTSIQIDLEKYSEQTEFGITSDKLLLAWREMEQAVELCGRENEVKLLVERMMALQTDIVDLQRSPMGRKQGGTLDDLEEQARELYRRLREKPRDQRTEGDSQEMVRLLLQAIQSFEKKVRVIYTQLSKTVVCKQKALELLPKVEEVVSLMNEDEKTVVRLQEKRQKELWNLLKIACSKVRGPVSGSPDSMNASRLSQPGQLMSQPSTASNSLPEPAKKSEELVAEAHNLCTLLENAIQDTVREQDQSFTALDWSWLQTEEEEHSCLEQAS",binding,binds
